Experimental data as given in patent publication US20060193847A1, “Peptides for inhibiting retroviruses” (priority 1996, published 2006).
Like-named read-outs stand apart in the source and are kept apart here. At least one peptide structure holds a part that was inferred or is arguable (an end, a ring closure or a residue). Residues, ends and D or L forms follow the SMILES beside them.

System: Murine leukemia virus (MuLV) (Rauscher)
Assay type: in vivo, BALB/c mice

CC(C)C[C@H](N)C(=O)N1CCC[C@H]1C(=O)N1CCC[C@H]1C(=O)N[C@@H](CO)C(=O)N[C@@H](CCCNC(=N)N)C(=O)O [Peptide (SEQ ID NO: 1), Leu-Pro-Pro-Ser-Arg] (H-LPPSR-OH; N-terminus and C-terminus assumed)
inhibition of splenomegaly (1 mcg of the peptide given orally (text to Table I)): 85.4
inhibition of spleen size (in words) (20 mcg/kg intraperitoneally on days 1, 3, 5, 7, and 11): almost complete inhibition
Mean Spleen Wt. (Table I, 1 mcg/kg I.P. 3 doses (day 2, 4, 6)): 614.2 mg
Mean Spleen Wt. (Table I, 10 mcg/kg I.P. 3 doses): 96.5 mg
Mean Spleen Wt. (Table I, 20 mcg/kg I.P. 3 doses): 96.1 mg
Mean Spleen Wt. (Table II, 10 mcg, I.P., days 2, 4, 6): 106.8 mg
Mean Spleen Wt. (Table II, Oral 11 mcg/kg, days 2, 4, 6): 2,048 mg
Mean Spleen Wt. (Table II, Oral 20 mcg/kg, days 2, 4, 6): 1,370 mg
Mean Spleen Wt. (Table II, Oral 40 mcg/kg, days 2, 4, 6): 945.4 mg
Mean Spleen Wt. (Table III, 10 mcg/kg I.P., Days 1, 3, 5, 7, 11): 1057.9 mg
Mean Spleen Wt. (Table III, 20 mcg/kg I.P., Days 1, 3, 5, 7, 11): 119.8 mg
Mean Spleen Wt. (Table III, 20 mcg/kg Orally, Days 1, 3, 5, 7, 11): 1440.0 mg
effect on inhibiting the spleen growth (given intraperitoneally at 10 mcg): significant effect
effect on inhibiting the spleen growth (orally at 100 mcg/kg): significant effect
